Percent effect of library compounds

A: 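Assay of Toxoplasma gondii numbers, read through their beta-galactosidase reporter with a colour substrate. Compounds at 10 µM. Higher reads as fewer parasites (inferred from which compounds were picked for retests). Of about 67,000 compounds tested this way, about 260 (0.38%) reached 50% or more in at least one test.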
B: 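Cell assay of Leishmania donovani living inside macrophages; the read-out is not stated. Concentration: 30 µM. Higher reads as stronger inhibition (inferred: compounds with an IC50 in retests scored well above the rest). Size under these conditions: about 69,000 compounds, about 1,000 of them at 50% or above in at least one test.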

Values are the deposited “Percent Effect”, in %. The record does not define 0% and 100%; most values in the screen are far below 50% and negative numbers occur (in some assays of this library far below -100). The compounds are a random part of those screened. Two or more numbers in one place are separate tests of the same structure; such repeats can differ widely.

{"structure": "CCCc1nccn1-c1cccc(C(C)O)c1", "stereo": "centres undefined", "A": 12.33, "B": 20.25}
{"structure": "Nc1nccnc1C1CN(C(=O)c2ccc3c(c2)OCO3)CCO1", "stereo": "centres undefined", "A": 7.769, "B": "-15.37 & -2.98"}
{"structure": "CN(Cc1cccc(F)c1)C1CCN(CCc2ccccn2)CC1", "A": 3.016, "B": 1.649}
{"structure": "O=C(O)c1nc(SCc2ccccc2)ncc1Br", "A": 13.3, "B": -23.57}
{"structure": "Cc1cnc(CN2CCN(C(C)c3nc(C4CC4)no3)CC2)cn1", "stereo": "centres undefined", "A": -0.4813, "B": 6.486}
{"structure": "Cc1nc2c(c(NC3CC3)n1)CCN(C(=O)CCc1cccnc1)CC2", "A": 8.991, "B": -4.442}
{"structure": "Cc1cc(CN2CCN(C(=O)NCCCc3cn[nH]c3C)CC2)on1", "A": -27.69, "B": 6.679}
{"structure": "Cc1c[nH]c(CN(C)C(=O)C(C)(C)NC(=O)c2cccs2)n1", "A": 1.539, "B": "-29.89 & -10.88"}
{"structure": "CC(C(=O)Nc1ccccn1)n1ccc(C(F)(F)F)n1", "stereo": "centres undefined", "A": -5.243, "B": -15.82}
{"structure": "FC(F)(F)c1cccc(CN2CCOC[C@H](Oc3cccnc3)C2)c1", "A": 10.09, "B": 24.04}
{"structure": "O=C1CC2(CCN(C(=O)c3ccccn3)CC2)Oc2c(Cl)cc(Cl)cc21", "A": 2.124, "B": 9.776}
{"structure": "CCS(=O)(=O)N1CCCn2c(nc(CN3CCCC3)cc2=O)C1", "A": 9.914, "B": -9.146}
{"structure": "COc1cc(CNCCc2cc(F)cc3c2OCOC3)cc(OC)c1", "A": -3.936, "B": 11.23}
{"structure": "Cc1nn(C)c2nc3c(c(C(=O)/N=c4\\[nH]nc(C(C)C)s4)c12)CCC3", "B": 0.5462}
{"structure": "Cc1nc(C2CCCN2C(=O)c2ccc(F)cc2)ncc1C(N)=O", "stereo": "centres undefined", "A": 8.179, "B": 7.385}
{"structure": "CCC1C(=O)NCCN1c1nccc(C)n1", "stereo": "centres undefined", "A": -35.04, "B": -11.81}
{"structure": "CCOCC(=O)N1CCC(C)(c2nccs2)CC1", "A": 25.34, "B": -73.55}
{"structure": "Cc1nc2c(c(NCCc3nc(C)c(Cl)s3)n1)CCNCC2", "A": -16.08, "B": 23.59}
{"structure": "[H][C@@]12CCN(Cc3ccco3)C[C@@]1([H])[C@H](C(=O)NC1CC1)CCO2", "A": -43.11, "B": -26.2}
{"structure": "CN(C)C(=O)CCS(=O)(=O)Cc1cc(Cl)c2c(c1)OCO2", "A": 3.356, "B": -3.638}
{"structure": "O=C(c1ccccn1)N1CCC(c2nccn2Cc2ccncc2)CC1", "A": -4.542, "B": -14.12}
{"structure": "CCc1c(C)sc2c1c(N)nc(=O)n2CCCN(C)C", "A": 9.808, "B": 34.84}
{"structure": "COCCn1ccc(NC(=O)Nc2ccccn2)n1", "A": 4.04, "B": 5.075}
{"structure": "COCC1c2nnn(CC3CC3)c2CCN1C(=O)C1CCOCC1", "stereo": "centres undefined", "A": 3.04, "B": 12.62}
{"structure": "CCN(CC)C(=O)c1nnn(-c2ccc(C)cc2)c1C1CC1", "A": 2.585, "B": 9.469}
{"structure": "COc1c(C(=O)NCC(C)C)nnn1Cc1ccccc1", "A": 74.28, "B": -4.076}
{"structure": "CCN(Cc1ccc(Cl)s1)S(=O)(=O)CCOC", "A": 1.561, "B": 21.36}
{"structure": "Cc1ccc(CN2CCC3(CC2)CCN(C(=O)c2cccn2C)C3)cc1.O=C(O)C(F)(F)F", "A": -4.327, "B": 10.21}
{"structure": "O[C@H]1CC[C@@H](Cc2cc(-c3ccccn3)on2)O[C@@H]1CNCC1CC1", "A": 2.217, "B": 30.63}
{"structure": "COc1cccc(S(=O)(=O)CCN2CCN(CC(F)F)CC2)c1", "A": 14.25, "B": 43.25}
{"structure": "Cc1ccc(S(=O)(=O)c2ncccc2CN2CCCCC2)cc1", "A": -16.11, "B": 7.546}
{"structure": "Cl.c1cn(-c2cnc(C3CCCNC3)cn2)cn1", "stereo": "centres undefined", "A": -36.85, "B": "7.731 & 9.539"}
{"structure": "Cc1ccc(OCC(O)Cn2ncc3cnn(C)c(=O)c32)cc1", "stereo": "centres undefined", "A": -1.872, "B": -2.07}
{"structure": "COc1cc(CNC(=O)c2c(C)noc2C(C)C)ccn1", "A": 2.435, "B": 1.61}
{"structure": "Cn1ccc(C(=O)NCCOc2ccc(C(C)(C)C)cc2)cc1=O", "A": 3.733, "B": 29.68}
{"structure": "Cn1cc(C2CC(=O)NC23CCN(Cc2cccc(F)c2)CC3)cn1.O=C(O)C(F)(F)F", "stereo": "centres undefined", "A": 10.1, "B": 12.66}
{"structure": "CCN1C(=O)CC(c2cnn(C)c2)C12CCN(C(=O)c1ccoc1)CC2", "stereo": "centres undefined", "A": 5.499, "B": 36.83}
{"structure": "CCc1nc(C2CCCN2C(=O)CCc2cscn2)no1", "stereo": "centres undefined", "A": 10.6, "B": -30.43}
{"structure": "O=C(O)C(F)(F)F.O=C(O)C(F)(F)F.[H][C@@]12COC[C@H](C(=O)Nc3cccnc3)[C@]1([H])CN(C1CCCC1)C2", "A": 9.381, "B": 18.7}

Some entries from above, unchanged:

{"structure": "Cc1ccc(CN2CCC3(CC2)CCN(C(=O)c2cccn2C)C3)cc1.O=C(O)C(F)(F)F", "A": -4.327, "B": 10.21}
{"structure": "COc1cccc(S(=O)(=O)CCN2CCN(CC(F)F)CC2)c1", "A": 14.25, "B": 43.25}
{"structure": "COc1cc(CNCCc2cc(F)cc3c2OCOC3)cc(OC)c1", "A": -3.936, "B": 11.23}
{"structure": "O=C(O)c1nc(SCc2ccccc2)ncc1Br", "A": 13.3, "B": -23.57}
{"structure": "COc1c(C(=O)NCC(C)C)nnn1Cc1ccccc1", "A": 74.28, "B": -4.076}

Measurements from “University of Dundee, Small-Polar-MMV Screening Library” (2021), ChEMBL document CHEMBL3988442.